According to publication doi:10.1101/2021.11.02.467024:
Where two headings read alike, the source gives them in different places. These are yes or no findings as the source states them, for the method shown. Binding seen in cells or lysates may run through a third protein. Some binding calls cover weakened binding; strength is not graded here.

Amino acid sequences for entries named in this document (tags omitted). A change or cut given only in a name is not applied to a line headed by its entry. Chains listed by the source or under a name are the forms on record and can include a tag or linker. Residues count along the entry.
UniProt Q61188: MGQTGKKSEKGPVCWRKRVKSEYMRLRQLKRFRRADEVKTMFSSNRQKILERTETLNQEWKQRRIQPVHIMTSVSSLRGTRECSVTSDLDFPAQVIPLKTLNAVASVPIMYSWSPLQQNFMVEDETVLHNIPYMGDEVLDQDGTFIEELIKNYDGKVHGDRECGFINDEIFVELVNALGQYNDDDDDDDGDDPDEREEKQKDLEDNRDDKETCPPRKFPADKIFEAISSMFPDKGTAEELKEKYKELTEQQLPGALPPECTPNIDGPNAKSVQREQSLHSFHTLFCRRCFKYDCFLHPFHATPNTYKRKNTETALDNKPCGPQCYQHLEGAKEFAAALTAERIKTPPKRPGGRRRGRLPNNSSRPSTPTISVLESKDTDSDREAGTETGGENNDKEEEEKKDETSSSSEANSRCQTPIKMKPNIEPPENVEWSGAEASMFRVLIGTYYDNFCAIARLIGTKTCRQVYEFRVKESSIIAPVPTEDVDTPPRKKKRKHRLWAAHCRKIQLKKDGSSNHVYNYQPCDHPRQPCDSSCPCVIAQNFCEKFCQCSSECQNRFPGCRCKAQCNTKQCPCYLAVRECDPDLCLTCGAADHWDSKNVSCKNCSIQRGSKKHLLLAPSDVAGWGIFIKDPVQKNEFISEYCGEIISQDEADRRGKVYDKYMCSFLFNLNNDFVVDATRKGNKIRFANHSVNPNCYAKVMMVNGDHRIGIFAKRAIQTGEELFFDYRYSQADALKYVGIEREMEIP
UniProt Q15910: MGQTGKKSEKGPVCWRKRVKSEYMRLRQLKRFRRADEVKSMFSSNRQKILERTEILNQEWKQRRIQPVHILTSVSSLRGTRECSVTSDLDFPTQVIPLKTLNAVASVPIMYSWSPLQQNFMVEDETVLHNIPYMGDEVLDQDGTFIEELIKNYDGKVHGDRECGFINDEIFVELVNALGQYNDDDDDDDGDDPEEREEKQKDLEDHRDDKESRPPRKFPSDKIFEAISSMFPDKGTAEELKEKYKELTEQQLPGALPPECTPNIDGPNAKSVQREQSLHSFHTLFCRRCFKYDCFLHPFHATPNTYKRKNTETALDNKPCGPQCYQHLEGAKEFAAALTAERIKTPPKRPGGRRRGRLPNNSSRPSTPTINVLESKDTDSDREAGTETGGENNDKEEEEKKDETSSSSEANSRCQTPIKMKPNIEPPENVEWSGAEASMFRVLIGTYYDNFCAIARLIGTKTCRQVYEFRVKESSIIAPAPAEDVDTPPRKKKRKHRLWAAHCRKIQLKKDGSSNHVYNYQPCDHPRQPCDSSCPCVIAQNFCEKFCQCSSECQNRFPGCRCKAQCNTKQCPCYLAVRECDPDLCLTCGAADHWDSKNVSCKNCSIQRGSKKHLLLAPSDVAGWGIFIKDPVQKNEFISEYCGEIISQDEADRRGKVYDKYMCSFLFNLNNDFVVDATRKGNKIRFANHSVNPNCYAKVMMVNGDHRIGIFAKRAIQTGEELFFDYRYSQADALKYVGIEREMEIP
GST-EZH2 (1-170): residues 1-170 of Q15910
GST-EZH2 (1-340) (Q15910-2, form named): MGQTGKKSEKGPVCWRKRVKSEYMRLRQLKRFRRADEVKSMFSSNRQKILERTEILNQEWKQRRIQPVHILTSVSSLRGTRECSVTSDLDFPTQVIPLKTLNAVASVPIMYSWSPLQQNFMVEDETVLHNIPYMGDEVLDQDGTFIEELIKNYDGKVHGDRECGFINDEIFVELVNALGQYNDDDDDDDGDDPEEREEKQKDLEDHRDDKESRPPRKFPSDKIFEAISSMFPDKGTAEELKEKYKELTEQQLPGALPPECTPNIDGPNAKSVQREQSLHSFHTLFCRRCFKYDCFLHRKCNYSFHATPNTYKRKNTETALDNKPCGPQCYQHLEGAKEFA

Key:
[1] = target: Ezh2, endogenous in B16-F10 murine melanoma cells (mouse (endogenous in B16-F10)) (UniProt Q61188); experiment: co-IP
[2] = target: Ezh2, endogenous in B16-F10 murine melanoma cells (mouse (endogenous in B16-F10)) (UniProt Q61188); experiment: co-IP; remark: listed apart in the source
[3] = target: MYC/FLAG-tagged full length IMPDH2 (human) (UniProt P12268); experiment: co-IP
[4] = target: GST-EZH2 (1-340) (human) (UniProt Q15910); experiment: pull-down
[5] = target: GST-EZH2 (1-170) (human) (UniProt Q15910); experiment: pull-down
[6] = target: HA-tagged EZH2-WT (human) (UniProt Q15910); experiment: co-IP

Impdh2, endogenous in B16-F10 murine melanoma cells (from UniProt P24547 1-514) (enzyme)
binding [1]: binds
binding [2]: binds

V5-EZH2 (1-170) deletion mutant (from UniProt Q15910-2 1-170) (domain or fragment)
binding [3]: binds

V5-EZH2 (1-340) deletion mutant [clone 2] (from UniProt Q15910-2 1-340) (domain or fragment)
binding [3]: binds

V5-IMPDH2 (1-187), CBS domain of IMPDH2 (from UniProt P12268 1-187) (domain or fragment)
binding [4]: binds
binding [5]: binds
binding [6]: binds
